Experimental data from PubChem BioAssay AID2551 (National Center for Advancing Translational Sciences (NCATS), 2010).
“And” between values parts separate entries of the source, which are not always exact repeats. Equal values may be shown once. Among all 310,000 compounds or so, about 17,000 (5.5%) were called active. Inconclusive means that the source gave no clear call. Such entries were picked first, then a sample of the others. The call rests on the fitted dose curve; in most records, active means well fitted inhibition curve with a large enough effect; inconclusive means small, poorly fitted or top-dose-only effect, or effect the other way; inactive means no such curve, though single readings can be large or run the other way. A potency beside an inconclusive call is a rough fit, not a confirmed value.
Further: nearly all actives have a fitted effect of over 60% in size.
On the % scale 0 is the no-effect control and ±100 the full control effect; potency means the concentration at half of the fitted maximal effect.

Amino acid sequences for entries named in this document (tags omitted). A change or cut given only in a name is not applied to a line headed by its entry.
UniProt P51450: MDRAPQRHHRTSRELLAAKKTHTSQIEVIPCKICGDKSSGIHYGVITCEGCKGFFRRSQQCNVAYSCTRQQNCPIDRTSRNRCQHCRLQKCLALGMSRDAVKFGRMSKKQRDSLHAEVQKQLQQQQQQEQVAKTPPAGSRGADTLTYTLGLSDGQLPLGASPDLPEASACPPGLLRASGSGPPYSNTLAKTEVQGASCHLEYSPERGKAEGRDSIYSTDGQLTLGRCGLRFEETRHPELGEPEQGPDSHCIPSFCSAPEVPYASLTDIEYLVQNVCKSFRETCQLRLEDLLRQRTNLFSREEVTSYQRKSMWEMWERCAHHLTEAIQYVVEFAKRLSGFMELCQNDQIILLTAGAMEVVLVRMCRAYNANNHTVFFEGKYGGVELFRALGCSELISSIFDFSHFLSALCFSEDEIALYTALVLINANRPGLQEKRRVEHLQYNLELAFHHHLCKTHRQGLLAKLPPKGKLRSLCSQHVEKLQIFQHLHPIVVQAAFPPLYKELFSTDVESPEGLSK

Each molecule was assayed against Nuclear receptor ROR-gamma (Mus musculus) (UniProt P51450) (assay: qHTS for inhibitors of ROR gamma transcriptional activity). Conditions: Drosophila S2 Gal4-RORgamma UAS-luciferase reporter, 20 h; activity change, negative = inhibition: at 53.6 µM (top of the series).
Method in brief: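 Stably transfected Drosophila Schneider cells are the test system, with ROR gamma fused to Gal4 and luciferase under UAS control; luminescence is read after 20 hr of 700 uM copper sulfate induction at ambient temperature.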
In the case of `O=C(Nc1ccc2nc(-c3ccc(Br)o3)[nH]c2c1)c1cccs1`, the Potency is reported as inconclusive: 17.8 µM [activator, partial curve, poor fit]. For `COc1ccc(-c2cn(CC3CCCCC3)nn2)cc1`, the “activity change, negative = inhibition” value was inactive: 28.8%. In the case of `COc1cc(OC)c(N(C)S(=O)(=O)c2cccc(C(=O)OCC(=O)c3c[nH]c4ccccc34)c2)cc1Cl`, the “activity change, negative = inhibition” value is reported as inactive: 7.84%. With `CCN(CC)CCN(C(=O)c1cc2ccccc2cc1OC)c1nc2ccc(F)cc2s1` the Potency was inconclusive: 17.8 µM [activator, single point]. `COc1ccc(NC(=S)NC(NC(=O)c2ccc(Cl)cc2Cl)C(Cl)(Cl)Cl)c([N+](=O)[O-])c1` (stereo not drawn) was tested, and the Potency was inconclusive: 5.62 µM [inhibitor, partial curve, poor fit]. In the case of `C/C(=N\NC(=O)c1ccc(Cl)c(Cl)c1)c1ccc(Br)s1`, the Potency is reported as active: 0.631 µM. With `CCc1nn2c(=O)c(S(=O)(=O)Nc3ccc(Cl)cc3)c(C)nc2s1` the Potency was inconclusive: 11.2 µM [activator, partial curve]. For `CCn1c(=O)c2c(nc(SCC(=O)NCC3CCCO3)n2C)n(C)c1=O` (stereo not drawn), the Potency was inconclusive: 22.4 µM [inhibitor, single point]. In the case of `CCOC(=O)/C(=C/c1ccc(OC(=O)c2ccncc2)cc1)C(C)=O`, the Potency is reported as inconclusive: 20 µM [inhibitor, single point]. In the case of `CC(=O)N1CCc2c(sc(NC(=O)C3COc4ccccc4O3)c2C(N)=O)C1` (stereo not drawn), the “activity change, negative = inhibition” value is reported as inactive: -16.3%. In the case of `FC(F)(F)c1ccc(NC(=S)NCc2ccccc2)cc1`, the Potency is reported as active: 4.47 µM. With `Cc1ccc(/C=N/NC(=O)c2cccnc2)s1` the Potency was active: 17.8 µM. For `O=C(CSCc1ccccc1Br)N/N=C/c1ccc(OCC(=O)N2CCCCC2)cc1`, the Potency was inconclusive: 11.2 µM [activator, partial curve]. For `CCCCNS(=O)(=O)c1ccc(NC(=O)C2c3ccccc3Oc3ccccc32)cc1`, the Potency was inconclusive: 22.4 µM [inhibitor, single point]. `Cc1ccc(Nc2c(-c3ccccn3)nc3cc(C)ccn23)cc1` was tested, and the Potency was active: 12.6 µM. For `COc1ccc(NC(=O)C2CCCN2S(=O)(=O)c2ccc(C)cc2)cc1` (stereo not drawn), the Potency was inconclusive: 5.01 µM [inhibitor, single point]. In the case of `NC(=O)CC(NSc1ccccc1[N+](=O)[O-])C(=O)O` (stereo not drawn), the “activity change, negative = inhibition” value is reported as inactive: 6.49%. For `COc1cccc(NC(=S)NN=C2CCC(C(C)(C)C)CC2)c1` (stereo not drawn), the Potency was inconclusive: 0.316 µM [inhibitor, full curve, poor fit]. `O=C(Nc1ccc(F)c(F)c1)c1ccco1` was tested, and the Potency was inconclusive: 20 µM [activator, partial curve, poor fit]. For `COc1ccc(Cl)cc1C(=O)NNC(=O)C1COc2ccccc2O1` (stereo not drawn), the Potency was inconclusive: 35.5 µM [inhibitor, single point]. In the case of `CCOc1ccc(-n2c(SCC)nc3c(c2=O)SCC3)cc1`, the “activity change, negative = inhibition” value is reported as inactive: 10.1%. With `O=C(NCc1cccs1)C1CCCN(S(=O)(=O)c2cccs2)C1` (stereo not drawn) the Potency was inconclusive: 14.1 µM [activator, single point]. With `O=c1c2c(nc3c(-c4ccccc4)c[nH]n13)CCCC2` the Potency was active: 10 µM. `CCC(=O)N1CCN(c2nc(-c3ccccc3)c3c(c2C#N)CCCC3)CC1` was tested, and the “activity change, negative = inhibition” value was inactive: 17.7%. With `COC(=O)N1C(=O)[C@](c2ccsc2)(C(C)C)N1C(=O)OC` the “activity change, negative = inhibition” value was inactive: 2.4%. With `CCOC(=O)c1cn2nc(N3CCCC3)ccc2n1` the Potency was inconclusive: 14.1 µM [inhibitor, single point]. With `O=C(c1ccccc1)c1cc(F)c(N2CCOCC2)cc1Cl` the Potency was inconclusive: 35.5 µM [activator, single point]. With `Cc1ccc(-n2ncc3c(NCc4ccccn4)ncnc32)c(C)c1` the “activity change, negative = inhibition” value was inactive: -43%. `O=C(c1cccs1)N(Cc1nc2sc3c(c2c(=O)[nH]1)CCCC3)C1CCCC1` was tested, and the “activity change, negative = inhibition” value was inactive: -28.1%. For `Cc1nnc(NC(=O)c2ccccc2Oc2ccccc2)s1`, the “activity change, negative = inhibition” value was inactive: -20.3%. `Brc1ccc2nc(-c3cccs3)c(NCC3CCCO3)n2c1` (stereo not drawn) was tested, and the Potency was inconclusive: 25.1 µM [inhibitor, single point]. `CCN(C(=S)NC(=O)C1CCCC1)C1CCCCC1` was tested, and the Potency was active: 4.47 µM. `CCCn1c(NC(=O)c2cccc(S(=O)(=O)N3CCCC3)c2)nc2ccccc21` was tested, and the Potency was active: 2.82 µM. In the case of `COc1cc(C(=O)NNC(=S)NC(=O)c2ccc3c(c2)OCO3)cc(OC)c1OC`, the Potency is reported as inconclusive: 5.01 µM [inhibitor, partial curve, poor fit]. For `c1ccc(CCn2nnnc2C(c2cccnc2)N2CCN(c3ccccc3)CC2)cc1` (stereo not drawn), the Potency was inconclusive: 14.1 µM [activator, single point]. `C=CCN(CC=C)C(=S)Nc1cc(Cl)ccc1OC` was tested, and the Potency was inconclusive: 12.6 µM [inhibitor, single point]. With `CCCCn1c(CN2CCOCC2)nc2c1c(=O)n(C)c(=O)n2C` the Potency was inconclusive: 6.31 µM [activator, single point]. For `Cc1ccc(SCCC(=O)N2CCC(C(N)=O)CC2)cc1`, the Potency was inconclusive: 35.5 µM [activator, single point]. `Cc1ccc(C(c2nnnn2C2CCCCC2)N2CCc3ccccc32)cc1` (stereo not drawn) was tested, and the “activity change, negative = inhibition” value was inactive: 9.37%. In the case of `COc1cc(OC)cc(OC)c1`, the Potency is reported as inconclusive: 31.6 µM [activator, single point]. For `CCOc1ccc(C(=O)N2CCC3(CC2)NCCc2[nH]cnc23)cc1`, the Potency was inconclusive: 2 µM [inhibitor, partial curve]. With `Cc1ccccc1NC(=O)/C=C/c1cccs1` the Potency was inconclusive: 3.55 µM [activator, full curve, poor fit]. With `Cc1ccc(/C=N/NC(=O)c2nnn(-c3nonc3N)c2CSc2ccccc2)s1` the Potency was active: 3.98 µM. `CNC1C(O)C(O)C(CO)O[C@H]1OC1C(O[C@@H]2C(O)C(O)[C@@H](N=C(N)N)C(O)C2N=C(N)N)OC(C)[C@]1(O)C=O` (stereo partly drawn) was tested, and the “activity change, negative = inhibition” value was inactive: -8.65%. In the case of `O=[N+]([O-])c1ccccc1-c1cc(-c2ccccc2O)n[nH]1`, the Potency is reported as inconclusive: 35.5 µM [inhibitor, single point]. With `CC(C)c1nc2cc(C(=O)N(C)Cc3ccc(F)cc3)ccc2o1` the Potency was inconclusive: 11.2 µM [activator, partial curve, poor fit]. In the case of `O=C(C1CCC1)N1CCc2cc(S(=O)(=O)Nc3ccc4c(c3)OCO4)ccc21`, the Potency is reported as inconclusive: 11.2 µM [activator, partial curve]. `O=C1C(=O)N(CCN2CCOCC2)C(c2ccccn2)/C1=C(/O)c1ccc(Cl)cc1` (stereo not drawn) was tested, and the Potency was inconclusive: 3.98 µM [activator, single point]. For `O=C(CCCN1C(=O)/C(=C\c2ccco2)SC1=S)Nc1ccc(O)cc1C(=O)O`, the Potency was active: 11.2 µM. `c1ccc(-c2noc(C3CCCCC3)n2)nc1` was tested, and the Potency was active: 3.55 µM. With `Cn1cccc1CC(=O)NNC(=S)Nc1ccc(Cl)cc1Cl` the Potency was inconclusive: 12.6 µM [inhibitor, partial curve]. In the case of `CC(C)(C)c1nnc(NS(=O)(=O)c2ccc([N+](=O)[O-])cc2)s1`, the Potency is reported as inconclusive: 35.5 µM [activator, single point]. With `O=C(NCN1CCc2ccccc2C1)c1cnccn1` the Potency was inconclusive: 0.708 µM [inhibitor, partial curve]. With `O=C(CCCn1c(=S)[nH]c2ccc(Br)cc2c1=O)NCc1ccccn1` the Potency was inconclusive: 25.1 µM [inhibitor, single point]. `CCOC(=O)NC(=O)/C(C#N)=N\Nc1ccc(Cl)cc1` was tested, and the Potency was inconclusive: 6.31 µM [inhibitor, single point]. `CC(C)Cn1c(N)c(C(=O)COC(=O)c2cc(C3CC3)nc3ccccc23)c(=O)n(C)c1=O` was tested, and the Potency was inconclusive: 10 µM [activator, partial curve] and inconclusive: 25.1 µM [activator, single point]. In the case of `COCCNC(=O)C(=O)Nc1ccc(Cl)cc1C`, the “activity change, negative = inhibition” value is reported as inactive: 13.1%. With `NCCC[C@@H](CC(=O)N[C@@H]1CCCC[C@H]1C(=O)N[C@H](CC(=O)N[C@@H](CCC(=O)O)CC(=O)O)Cc1c[nH]c2ccccc12)NC(=O)C[C@H](Cc1c[nH]c2ccccc12)NC(=O)[C@@H]1CCCC[C@H]1N` the “activity change, negative = inhibition” value was inactive: 0.0802%. `CCN(CC)S(=O)(=O)c1ccc(-c2nnc(SCC(=O)Nc3ccc4c(c3)OCO4)o2)cc1` was tested, and the Potency was inconclusive: 14.1 µM [inhibitor, single point]. `COC(=O)C1=C(O)C(C(=O)OC)C(c2ccc(C)cc2)C(C#N)(C#N)C1c1ccc(C)cc1` (stereo not drawn) was tested, and the Potency was inconclusive: 22.4 µM [inhibitor, single point]. `CCCCCn1c(N2CCN(c3cccc(Cl)c3)CC2)nc2c1c(=O)[nH]c(=O)n2C` was tested, and the Potency was inconclusive: 35.5 µM [inhibitor, single point]. For `CC(C)c1ccc(OCC(=O)Nc2ccncc2)cc1`, the Potency was inconclusive: 15.8 µM [activator, partial curve]. `CCN(CC)S(=O)(=O)c1ccc(N=NC2=C(O)CC(C)(C)CC2=O)cc1` was tested, and the Potency was inconclusive: 2.51 µM [activator, full curve, poor fit]. With `CCOC(=O)CN1CC23C=CC(O2)C(C(=O)NCc2ccc(F)cc2)C3C1=O` (stereo not drawn) the Potency was inconclusive: 0.251 µM [inhibitor, full curve, poor fit]. For `CCCCSc1nnc(-c2cc(Br)ccc2N)c(=O)[nH]1`, the Potency was inconclusive: 10 µM [activator, partial curve, poor fit]. In the case of `O=C(NCCc1ccc(Cl)cc1)c1cc(S(=O)(=O)N2CCCCC2)c[nH]1`, the Potency is reported as inconclusive: 15.8 µM [activator, partial curve, poor fit]. `CCCCCCCN(C(=O)CCl)c1cccc(C)c1` was tested, and the Potency was inconclusive: 22.4 µM [inhibitor, single point]. With `CN(C)CC/C=C1\c2cc(F)ccc2CSc2ccccc21` the Potency was inconclusive: 25.1 µM [inhibitor, single point].
